Consider 108 sequences from PubChem BioAssay AID1347426 (Functional Genomics Laboratory (NCATS/FGL), 2020).

Out of some 31,000 sequences screened, about 1,400 (4.5%) were called active.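 How the source made its calls: active means median seed-adjusted z-score above 1 or below -1; inactive means the rest.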 The list shows a part of the results.

This assay is described as follows: Novel Modifiers of Survival Motor Neuron (SMN) Protein: Gene Identification via Genome-wide siRNA Screen.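 Further: luminescence tracks full-length SMN protein made from the SMN2 reporter.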 The note with it: HEK293T SMN2-luciferase reporter, siRNA knockdown, 72 h; actives lie on both sides. In a few lines:
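Luciferase signal, proportional to full-length SMN made from an SMN2 cDNA reporter in stable HEK293T cells, was read 72 h after siRNA reverse transfection. Values were expressed as MAD scores after non-targeting-control normalization and log10 conversion; seed analysis flagged off-targets.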
(A reporter such as luciferase makes a cellular process visible.)
For the sequence GCCGUGCAUUUCUACGGAATT against SGTA, the median seed-adjusted z-score was inactive: 0.819.
The result for GCAUGAGAAGCGAAUGUCATT against NFIB reads inactive: 0.1; that for ACAUCAUCUCGGUUCCGCATT against ESR1, inactive: -0.408.
CAUUGUGAAUUAUUACCUATT against CCL19: the median seed-adjusted z-score was inactive: 0.0364.
As for CCCACAUAAUCAUCACGUUTT against GNS, the median seed-adjusted z-score is inactive: 0.
For CAACCACCAUCUGACCUUUTT against MMP15 the value was inactive: -0.0489; for GCAAGAAGAUCAUAUGUGATT against OC90, inactive: 0.216.
For CCAUGAUAUUGGAACUGAATT against TBX15 the value was inactive: 0.265.
The result for CAACAACCAUAAGCGUGUATT against ZNF34 reads inactive: 0.0391; that for GUCUCACCGUAUUUCAAGATT against SNTA1, inactive: 0.212; that for CAUGAACAGUUUAUCGUAATT against FMR1, inactive: 0.504.
For GAAACGCAAGGGUACAGAATT against RUVBL2, the median seed-adjusted z-score was inactive: -0.0764.
For GUAAGUUUGUUCACCGAGATT against MUSK the value was inactive: 0.138; for ACAUAAAAUCUACGAGUUUTT against IRF3, inactive: 0.0117; for CGCACUGUCUCUUACAACATT against PDE12, inactive: 0.422.
Turning to CAUUCAACAUUCACGAAAATT against IPO8, the median seed-adjusted z-score is inactive: -0.349.
The result for GCCUUCAAGUGUUCCCGUUTT against ZNF709 reads inactive: 0.0129.
In the case of GCCGAGUCUGUAUAACUCATT against SLC16A8, the median seed-adjusted z-score is inactive: 0.192.
For GGACGGUGAUUGAGAUGUUTT against EHMT1 the value was inactive: 0.00857; for GGAUGUUAAUUUUUCGCUUTT against SLC22A2, inactive: -0.0161.
As for GCAAACACCUGUUUGUGCATT against TEAD3, the median seed-adjusted z-score is inactive: 0.
For CUCAGGAGCUGUUUCAACATT against PPOX the value was inactive: 0.519; for AGUUUCGUCUUAUACUUCATT against SLC24A3, inactive: 0.0177; for AUACAGAUGAUAAACCAUUTT against ZBTB34, inactive: 0.0298.
As for GCAUGACCGGUGGACUUUUTT against OVGP1, the median seed-adjusted z-score was inactive: -0.642.
As to GUUCAAUACUUGAACACGATT against FFAR2, the median seed-adjusted z-score is inactive: 0.146.
For GGAUUUGGGUGGAACUGAATT against TRNT1 the value was inactive: 0.142.
For GGAGAGGUUUCGUAGCUUATT against RAB27A the value was inactive: -0.134; for AGACCGCAAUUCUAAGUUUTT against GPR4, inactive: 0.563; for GAAUGAGGCUUUUGUGGAUTT against CAPN12, inactive: 0.155.
The result for CCGAUGAUCUACCCACAAATT against TLR3 reads inactive: 0.0615; that for GCAUCUCGAUGAUCCAGGATT against SLITRK5, inactive: 0.165; that for GCACCUUCGUCUACAAGGATT against PDE6A, active: 1.25.
In the case of GGACUGCGGUACCUAAUUUTT against PLCL2, the median seed-adjusted z-score is inactive: 0.393.
With GCAUUGCAAUGUUUCCAAUTT against ZNF396, the median seed-adjusted z-score was inactive: -0.247.
On to ACUACUAUGUCUUCACCGATT against ABO, for which the median seed-adjusted z-score was inactive: 0.
The result for CCUUUGUGCUCUACCUACATT against TTC16 reads inactive: 0; that for AGCCGUGCCUCAUCAAGAATT against WIZ, inactive: 0.282; that for GCAGCAUAUUAUAGACAAATT against ZBTB37, inactive: -0.219.
The result for GACCCACAGUUGCAGCAUUTT against TIMM8A reads inactive: 0.173.
On to CACUCAGACGGGACGUUCATT against SCT, for which the median seed-adjusted z-score is inactive: -0.454.
For CGAGCUGACUGAUGCCUUATT against CPT2 the value was inactive: 0.542; for GCAUCACACUCACCAACUATT against GPR124, inactive: 0.00658; for GCCUACAUGUUUCUGCUGATT against RHO, inactive: -0.267.
In the case of GCAAGGUCGUCAACCGCAATT against SAPS1, the median seed-adjusted z-score was active: 1.16.
The result for CGAAACCUUUAAAUGCGAATT against SLITRK4 reads inactive: -0.015; that for CAUCAUAUCUCAAAGUAAATT against TUBA1B, inactive: 0.0888; that for CAUCGUAAGAUUAAUCCUATT against ZNF277, inactive: -0.0374.
In the case of CAAAUAGUGUAUUACCUAATT against THAP2, the median seed-adjusted z-score is inactive: -0.273.
The result for GGAAGCUAGUGGACUAUGATT against AMPH reads inactive: -0.725.
The result for GGGUGCAACCCAAAUCUGATT against SPRY2 reads inactive: 0.148; that for CAUAAUGUCUGCAAUCGAATT against ATP2C1, inactive: -0.112.
For GCCUCAUCUUCCGAGAAGATT against AMH the value was inactive: -0.255; for CAUCAUUAAUGGUUAUGGATT against LRRTM2, inactive: 0.508; for GCAUUACGGAGAACGUGAATT against MCF2L, inactive: -0.624.
As for GGUUAUUGCACAGCGAUUATT against DLAT, the median seed-adjusted z-score is inactive: 0.
The result for GGAAGCUUGUGAUUGGCUATT against DLC1 reads inactive: -0.0296; that for UGUCCACGGUUAAAAUUAUTT against CCL16, inactive: -0.308.
For GACAGUUCUUAAAACACCATT against ZNF500 the value was inactive: 0.
For CCAGGUGAAGAGUCGAAAATT against PSKH2, the median seed-adjusted z-score is inactive: 0.0439.
For ACAUCGAAGAGAUUUGUCATT against ADRBK1 the value was inactive: 0; for GAGUUAAAGAGGGUAUAGATT against WFDC12, inactive: 0; for GUAGUCCUGUGAAACCGAUTT against RFXDC2, inactive: 0.724.
Turning to GAUACGUCCUCAAGACGGATT against B3GALT4, the median seed-adjusted z-score was inactive: 0.233.
For GGAGGACACGGGAAGCUAUTT against SIGLEC5 the value was inactive: -0.615; for CGCUUACAAGGUCAACAUUTT against S1PR3, inactive: -0.0931; for GGAUUUUGCGUAUAGCUCUTT against ZNF285A, inactive: 0.148.
The result for GCAUUUCGCCUGACCAUUATT against SENP1 reads inactive: 0.625.
For CCUACGUUCCUUCCACUUUTT against GABRP the value was inactive: -0.441.
As to GACUGACGGUUUUAGUCUUTT against CAPNS2, the median seed-adjusted z-score was inactive: 0.529.
The result for GGAGCUUCUUGGAUGCCUUTT against KCNK6 reads inactive: -0.199.
For CCAACUAUUUCAUCGUGAATT against ADRA1D the value was inactive: -0.18.
For CACAGACCGAGGAGAAAGATT against CRLF2 the value was inactive: 0.218.
In the case of GAAUGAAGGUUUAUAUUGATT against EPHB3, the median seed-adjusted z-score is inactive: -0.407.
For GGAUCAUCAGACAAUUUUUTT against TMPRSS7 the value was inactive: 0.0269; for GGCUUAUUAUUGUGACCAUTT against PREB, inactive: 0.182.
Consider GCAUGGAAGUGUACGAGUATT against THBS3, for which the median seed-adjusted z-score is inactive: 0.429.
For CUAUCGACAUCAAGAGUUUTT against PSPC1 the value was inactive: 0.0612; for GAAGAUUCCUGAACGAGGATT against SELP, inactive: -0.879.
The result for AGGACGUGGUGGUAUUAGATT against AGXT2L2 reads inactive: -0.0495; that for AUCUACUGCUUUUACGUCUTT against PIGQ, inactive: 0.00996.
The result for GUGAUAAUCCUGAGAGAUATT against EDNRA reads inactive: 0.133; that for GCAUAGAUCCUGUUUCGUATT against OSBPL2, inactive: 0; that for GGAUGUUCGUUCCUACAUUTT against LCT, inactive: 0.411.
GCGAUUCUAUGUGCGAGUATT against CABIN1: the median seed-adjusted z-score was inactive: -0.446.
The result for CUACAGCGGAGGGAACAAATT against ABCA7 reads inactive: -0.711; that for CAACCAUAGUUAAAGUUAATT against TCP1, active: -1.02.
The result for GCAGCUUACAGAUUCGCUATT against MLLT10 reads inactive: -0.147; that for GGAGGAUCCCAUUAUACUATT against LPA, inactive: -0.321.
For GGAACAAAGUCUCACAGAUTT against ZKSCAN1 the value was inactive: 0.229.
Regarding CACUGAGUAUAGAACGGAATT against PTPRJ, the median seed-adjusted z-score was inactive: 0.0522.
For CCCAUACUGUUACCCAUAATT against CHAC1 the value was inactive: 0.517; for CUUCAUGACUGGACCCUCATT against AGFG2, inactive: -0.289; for ACCUGGUGUUUGUAGGCAATT against DNAL1, inactive: 0.866.
With GCUAUGCUAUCAAGAAUAUTT against DNM1, the median seed-adjusted z-score was inactive: 0.217.
The result for ACGAGUUUCUGGACAAGUUTT against CHST12 reads inactive: 0.
For CUAUUCUAAUGCCUACUUUTT against SEMA5A the value was inactive: -0.443; for UAACCCAUGUUUUACCUUUTT against ADH1A, inactive: 0.624; for GGUCAUUGCCCGAACAAUATT against BNC1, inactive: -0.631.
Regarding CAUCUGACCCUAACUGAAATT against ZMYND10, the median seed-adjusted z-score is inactive: 0.255.
As to CCUGAUCCACGAGAAGUCATT against SPATA20, the median seed-adjusted z-score was inactive: 0.
For CCAGUCGCGUAAGACAACATT against PYDC1 the value was active: -1.44; for CAACAUCCACGGAGAUUGATT against BTBD2, inactive: 0.0303; for GAAAAGAUUUCGUCCUCAATT against FOXF2, inactive: -0.608.
For CCAUCCUGUUUGUCACCUATT against HHATL, the median seed-adjusted z-score was inactive: 0.497.
For GGCUAUACAUGGAUAGCAATT against SLITRK1 the value was inactive: 0.215.
For GAUGGUGGAUGCUUCCAAATT against DTYMK the value was inactive: -0.191; for GGACGGGAACUACUUUGAATT against PDLIM3, inactive: -0.297.
